Paper PMC8115264, “Mitofusin-2 stabilizes adherens junctions and suppresses endothelial inflammation via modulation of β-catenin signaling” (Nature Communications, 2021)
No constants are given. Whether binding was seen depends on the method and setting. Binding seen in cells or lysates may run through a third protein. These calls come from enrichment with a bait or labelling near it, and not all partners need be listed. Sequences can lack the tags named with a protein.

Sequences of proteins named here, by UniProt entry; tags and fusion partners are left off.
UniProt P06733: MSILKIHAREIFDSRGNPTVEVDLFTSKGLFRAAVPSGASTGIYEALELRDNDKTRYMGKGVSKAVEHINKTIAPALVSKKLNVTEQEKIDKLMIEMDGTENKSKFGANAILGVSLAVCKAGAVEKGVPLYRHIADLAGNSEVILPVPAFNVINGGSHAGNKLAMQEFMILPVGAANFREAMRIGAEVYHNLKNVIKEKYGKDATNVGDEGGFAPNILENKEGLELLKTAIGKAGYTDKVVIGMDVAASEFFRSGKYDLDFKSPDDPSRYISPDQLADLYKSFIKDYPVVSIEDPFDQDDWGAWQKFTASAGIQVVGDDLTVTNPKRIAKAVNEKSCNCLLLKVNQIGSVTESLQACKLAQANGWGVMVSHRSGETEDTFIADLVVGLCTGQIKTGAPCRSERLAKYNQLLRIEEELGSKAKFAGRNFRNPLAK

Target: T1, GFP-Mfn2 (UniProt O95140 1-757)
T1 construct: The construct was generated in the authors' laboratory; also called lentiviral GFP-Mfn2; GFP-tagged Mfn2; source: HLMVECs, lentiviral expression (pWPXL), in lysate
T1 sequence (looked up): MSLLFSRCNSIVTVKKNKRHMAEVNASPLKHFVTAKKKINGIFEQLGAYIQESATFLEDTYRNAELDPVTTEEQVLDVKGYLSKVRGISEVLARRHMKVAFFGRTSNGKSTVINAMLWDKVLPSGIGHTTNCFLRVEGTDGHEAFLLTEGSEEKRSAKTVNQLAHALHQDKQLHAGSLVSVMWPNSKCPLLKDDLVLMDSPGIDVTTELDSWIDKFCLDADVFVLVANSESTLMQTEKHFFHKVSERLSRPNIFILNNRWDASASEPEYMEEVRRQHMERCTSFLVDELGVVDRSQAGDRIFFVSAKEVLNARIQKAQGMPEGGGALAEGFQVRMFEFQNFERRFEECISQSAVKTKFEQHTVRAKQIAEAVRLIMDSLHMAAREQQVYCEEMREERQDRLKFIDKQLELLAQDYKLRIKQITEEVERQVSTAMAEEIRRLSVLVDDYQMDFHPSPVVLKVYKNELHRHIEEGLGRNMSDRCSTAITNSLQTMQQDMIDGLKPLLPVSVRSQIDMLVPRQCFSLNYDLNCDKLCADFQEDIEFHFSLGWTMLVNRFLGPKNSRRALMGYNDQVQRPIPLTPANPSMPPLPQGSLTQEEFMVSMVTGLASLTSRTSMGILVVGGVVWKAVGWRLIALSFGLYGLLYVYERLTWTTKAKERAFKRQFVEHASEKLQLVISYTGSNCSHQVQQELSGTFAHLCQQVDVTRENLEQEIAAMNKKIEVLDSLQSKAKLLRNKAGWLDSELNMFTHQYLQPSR
Test: affinity purification with mass spectrometry; GFP-Mfn2 from HLMVEC lysate immunoprecipitated with GFP-trap magnetic agarose; LC-MS/MS; lentiviral GFP as control; hits found in at least two of three experiments with >1.5-fold increase

Molecule | binding
MACF1 (Microtubule Actin Crosslinking Factor 1) (from UniProt Q9UPN3 1-7388) | binds
ENO1 (from UniProt P06733 1-434) | binds
KRT18 (protein, UniProt P05783 1-430) MSFTTRSTFSTNYRSLGSVQAPSYGARPVSSAASVYAGAGGSGSRISVSRSTSFRGGMGSGGLATGIAGGLAGMGGIQNEKETMQSLNDRLASYLDRVRSLETENRRLESKIREHLEKKGPQVRDWSHYFKIIEDLRAQIFANTVDNARIVLQIDNARLAADDFRVKYETELAMRQSVENDIHGLRKVIDDTNITRLQLETEIEALKEELLFMKKNHEEEVKGLQAQIASSGLTVEVDAPKSQDLAKIMADIRAQYDELARKNREELDKYWSQQIEESTTVVTTQSAEVGAAETTLTELRRTVQSLEIDLDSMRNLKASLENSLREVEARYALQMEQLNGILLHLESELAQTRAEGQRQAQEYEALLNIKVKLEAEIATYRRLLEDGEDFNLGDALDSSNSMQTIQKTTTRRIVDGKVVSETNDTKVLRH | binds
